Reference: PubChem BioAssay AID1159601 (NIAID, 2016)
The whole screen tested 756 reagents; this is a random part of them. 143 of them (19%) were called active. 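Calls include both lowered and raised reporter signal; each row is a single siRNA, not a gene summary; Pam3CSK4 dose not stated.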 The record does not give: the amount of reagent.

Aim: 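Which toll-like receptor pathway genes are needed for TNF promoter activation by Pam3CSK4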 (primary screen)
Cell system: human THP-1 reporter cells differentiated with PMA into macrophage-like cells
Knock-down reagent: single siRNA against human genes
Timing: ligand added 4 hours before read-out; cells assayed 48 to 72 hours after siRNA transfection
Treatment: Pam3CSK4 (TLR2 ligand) for 4 hours; dose not given
Read-out: 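Firefly over renilla luciferase ratio from a TNF promoter reporter after 4 h Pam3CSK4, plate scaled by median and MAD, robust z-score versus negative controls, replicate mean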
Reading the numbers: TNF reporter z-score: higher = stronger TNF promoter reporter activity
Hit rule: 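The depositor grades each siRNA by the size of its mean z-score in either direction, with steps at 1, 1.5, 2 and 2.5; active calls sit near -1.5 or below, or near 1.5 or above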
Meaning of the calls: active = clear change (up or down); inactive = little change

Target gene	PubChem SID	TNF reporter z-score, replicate mean	Call
PTPN6	SID303071146	-0.473	inactive
PTPN6	SID303071147	0.434	inactive
PTPN6	SID303071148	-0.349	inactive
PTPN6	SID303071149	-1.85	active
PTPN6	SID303071150	-1.01	inactive
PTPN6	SID303071151	-0.413	inactive
TLR1	SID303070438	1.95	active
TLR1	SID303070439	-1.09	inactive
TLR1	SID303070440	-1.75	active
TLR1	SID303070441	1.07	inactive
TLR1	SID303070442	-0.999	inactive
TLR1	SID303070443	-0.201	inactive
MAP3K7	SID303070588	-2.87	active
MAP3K7	SID303070589	-5.11	active
MAP3K7	SID303070590	-5.17	active
MAP3K7	SID303070591	-0.927	inactive
MAP3K7	SID303070592	-4.03	active
MAP3K7	SID303070593	-2.13	active
IFNB1	SID303071062	-1.21	inactive
IFNB1	SID303071063	0.015	inactive
IFNB1	SID303071064	-1.51	active
IFNB1	SID303071065	-0.744	inactive
IFNB1	SID303071066	-1.69	active
IFNB1	SID303071067	-1.99	active
CASP8	SID303070810	-0.392	inactive
CASP8	SID303070811	-0.304	inactive
CASP8	SID303070812	0.655	inactive
CASP8	SID303070813	-0.6	inactive
CASP8	SID303070814	-0.31	inactive
CASP8	SID303070815	-0.904	inactive
FOS	SID303070960	-0.605	inactive
FOS	SID303070961	-0.792	inactive
FOS	SID303070962	1.12	inactive
FOS	SID303070963	-0.635	inactive
FOS	SID303070964	-0.427	inactive
FOS	SID303070965	1.51	active
TLR2	SID303070444	1.51	active
TLR2	SID303070445	-1.14	inactive
TLR2	SID303070446	-1.51	active
TLR2	SID303070447	0.68	inactive
TLR2	SID303070448	-0.878	inactive
TLR2	SID303070449	-0.618	inactive
IKBKB	SID303070624	0.798	inactive
IKBKB	SID303070625	-0.578	inactive
IKBKB	SID303070626	-0.242	inactive
IKBKB	SID303070627	-0.122	inactive
IKBKB	SID303070628	0.352	inactive
IKBKB	SID303070629	0.285	inactive

Laid out differently: 6 of the entries above
IFNB1 [SID303071063] — TNF reporter z-score, replicate mean = 0.015; Call = inactive
IFNB1 [SID303071064] — TNF reporter z-score, replicate mean = -1.51; Call = active
IFNB1 [SID303071065] — TNF reporter z-score, replicate mean = -0.744; Call = inactive
IFNB1 [SID303071066] — TNF reporter z-score, replicate mean = -1.69; Call = active
IFNB1 [SID303071067] — TNF reporter z-score, replicate mean = -1.99; Call = active
CASP8 [SID303070810] — TNF reporter z-score, replicate mean = -0.392; Call = inactive
